# From patent US20050228019A1, “Enhancement of ampakine-Induced facilitation of synaptic responses by cholinesterase inhibitors” (priority 2004, published 2005)
# Test system: lateral olfactory tract (LOT) evoked responses
# Assay: Lateral olfactory tract (LOT) evoked responses in awake rats
# Format: in vivo, Long-Evans rats
# Conditions: Aricept 1.5 mg/kg ip alone
# Method: Chronic recording preparation: Adult male Long-Evans rats with recording and stimulating electrodes chronically implanted into different areas of the brain known to subserve memory were used. The electrodes were stereotaxically inserted under pentobarbital anesthesia (65 mg/kg), using procedures essentially as described in earlier work (Stäubli and Xu, Journal of Neuroscience 15: 2445-2452, 1995; Stäubli and Scafidi, Journal of Neuroscience 17: 4820-4828, 1997). Briefly, monopolar stimulating electrodes (125 μm) were placed into the perforant path projections to hippocampal dentate gyrus and into the lateral olfactory tract projections to olfactory cortex. Following these steps, the leads of the electrodes were connected to a headstage that is permanently affixed to the rat's skull.
# The animals were allowed approximately 10 days for recovery before being acclimated to a chronic recording cage (30×30×58 cm) and the attachment of a recording lead to their headstage. Biphasic stimulation pulses were provided by a digital stimulator that allows precise control of current intensity and pulse duration. […] The evoked responses were monitored on a storage oscilloscope and digitized at 10 kHz. The peak amplitude, half-width and area of each response were measured on-line and stored on disk for off-line analysis. […]
structure (smiles),measurement,value
"COc1cc2c(cc1OC)C(=O)C(CC1CCN(Cc3ccccc3)CC1)C2.Cl (racemic) [Aricept, (±)-2,3-dihydro-5,6-dimethoxy-2-[[1-(phenylmethyl)-4-piperidinyl]methyl]-1H-inden-1-one hydrochloride, reference compound]",effect on LOT responses,little to no effect
